Measured values taken from paper PMC3814295.
Results are given in words; binding and its absence hold for the method and conditions named. In cells and extracts the contact can be indirect. Some entries that bind do so weakly or less than the wild type. Sequences can lack the tags named with a protein.

T1: purified 6xHis-tagged RAD52 (human) (UniProt P43351)
T1 sequence: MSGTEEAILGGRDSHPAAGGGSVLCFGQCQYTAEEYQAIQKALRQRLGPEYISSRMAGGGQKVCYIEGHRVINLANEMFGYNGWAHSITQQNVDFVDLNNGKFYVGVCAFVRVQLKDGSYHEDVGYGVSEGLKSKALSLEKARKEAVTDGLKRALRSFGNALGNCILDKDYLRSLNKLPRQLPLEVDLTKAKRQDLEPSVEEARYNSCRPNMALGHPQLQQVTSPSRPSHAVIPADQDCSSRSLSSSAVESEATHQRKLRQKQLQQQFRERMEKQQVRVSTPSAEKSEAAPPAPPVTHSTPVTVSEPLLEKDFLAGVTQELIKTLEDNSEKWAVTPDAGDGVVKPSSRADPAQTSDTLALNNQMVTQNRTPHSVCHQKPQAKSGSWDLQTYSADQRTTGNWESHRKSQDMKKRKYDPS

T2: Myc-tagged MUS81 (human) (UniProt Q96NY9)
T2 sequence: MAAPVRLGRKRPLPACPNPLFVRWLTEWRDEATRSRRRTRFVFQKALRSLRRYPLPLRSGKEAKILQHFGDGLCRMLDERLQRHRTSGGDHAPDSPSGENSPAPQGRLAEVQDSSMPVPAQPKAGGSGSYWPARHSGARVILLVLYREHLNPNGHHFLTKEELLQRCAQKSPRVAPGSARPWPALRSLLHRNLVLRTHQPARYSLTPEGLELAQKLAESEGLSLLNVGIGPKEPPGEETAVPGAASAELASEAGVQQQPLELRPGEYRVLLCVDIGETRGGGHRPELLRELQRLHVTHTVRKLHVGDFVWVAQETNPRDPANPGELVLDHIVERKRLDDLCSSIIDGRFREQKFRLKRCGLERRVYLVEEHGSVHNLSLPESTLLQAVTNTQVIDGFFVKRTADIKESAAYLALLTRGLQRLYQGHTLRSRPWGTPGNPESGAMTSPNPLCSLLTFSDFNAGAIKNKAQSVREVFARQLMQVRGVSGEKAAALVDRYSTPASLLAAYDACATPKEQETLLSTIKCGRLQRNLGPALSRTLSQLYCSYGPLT


Tests used:
[1] = molecular target: T1, purified 6xHis-tagged RAD52 (human); experiment: pull-down; 5 ug purified His-tagged RAD52 as bait incubated overnight with 1 mg benzonase-treated HeLa nuclear extract in Tris/Cl pH 7.6, 150 mM NaCl, 0.5% Triton X-100; captured with anti-His antibody-coupled Protein G (magnetic beads) 1 h at RT; Western blotting; only the target purified
[2] = molecular target: T2, Myc-tagged MUS81 (human); experiment: co-IP + pull-down; Myc-MUS81 and GST-EME1 co-expressed in 293T; benzonase-treated nuclear lysate on anti-Myc agarose, washed in 300 mM NaCl, 0.5% Triton X-100, eluted with Myc peptide, then captured on GSH-agarose and eluted with 25 mM glutathione; SDS-PAGE with Coomassie staining

binding [1]	binding [2]	Binder
binds	–	MUS81 (HeLa nuclear extract) (protein, UniProt Q96NY9 1-551) MAAPVRLGRKRPLPACPNPLFVRWLTEWRDEATRSRRRTRFVFQKALRSLRRYPLPLRSGKEAKILQHFGDGLCRMLDERLQRHRTSGGDHAPDSPSGENSPAPQGRLAEVQDSSMPVPAQPKAGGSGSYWPARHSGARVILLVLYREHLNPNGHHFLTKEELLQRCAQKSPRVAPGSARPWPALRSLLHRNLVLRTHQPARYSLTPEGLELAQKLAESEGLSLLNVGIGPKEPPGEETAVPGAASAELASEAGVQQQPLELRPGEYRVLLCVDIGETRGGGHRPELLRELQRLHVTHTVRKLHVGDFVWVAQETNPRDPANPGELVLDHIVERKRLDDLCSSIIDGRFREQKFRLKRCGLERRVYLVEEHGSVHNLSLPESTLLQAVTNTQVIDGFFVKRTADIKESAAYLALLTRGLQRLYQGHTLRSRPWGTPGNPESGAMTSPNPLCSLLTFSDFNAGAIKNKAQSVREVFARQLMQVRGVSGEKAAALVDRYSTPASLLAAYDACATPKEQETLLSTIKCGRLQRNLGPALSRTLSQLYCSYGPLT
–	binds	GST-tagged EME1 (protein, UniProt Q96AY2 1-570) MALKKSSPSLDSGDSDSEELPTFAFLKKEPSSTKRRQPEREEKIVVVDISDCEASCPPAPELFSPPVPEIAETVTQTQPVRLLSSESEDEEEFIPLAQRLTCKFLTHKQLSPEDSSSPVKSVLDHQNNEGASCDWKKPFPKIPEVPLHDTPERSAADNKDLILDPCCQLPAYLSTCPGQSSSLAVTKTNSDILPPQKKTKPSQKVQGRGSHGCRQQRQARQKESTLRRQERKNAALVTRMKAQRPEECLKHIIVVLDPVLLQMEGGGQLLGALQTMECRCVIEAQAVPCSVTWRRRAGPSEDREDWVEEPTVLVLLRAEAFVSMIDNGKQGSLDSTMKGKETLQGFVTDITAKTAGKALSLVIVDQEKCFSAQNPPRRGKQGANKQTKKQQQRQPEASIGSMVSRVDAEEALVDLQLHTEAQAQIVQSWKELADFTCAFTKAVAEAPFKKLRDETTFSFCLESDWAGGVKVDLAGRGLALVWRRQIQQLNRVSLEMASAVVNAYPSPQLLVQAYQQCFSDKERQNLLADIQVRRGEGVTSTSRRIGPELSRRIYLQMTTLQPHLSLDSAD
